For some of these results: At least one structure is not confirmed: it was looked up by name or label, or the drawing left a doubt. Some compounds share one wording; it may come from a single statement. Some of these results come from one statement about several compounds together.
Key:
[1] = at doses of 100 μg; cited from earlier work
[2] = test system: cardiomyocyte Gs-coupled receptors; experiment: cAMP production in isolated neonatal cardiomyocytes (HTRF); type: cell-based, rat

Row | Compound | inhibition of gastric emptying, in words [1] | receptor activation responses [2]
1 | CC[C@H](C)[C@H](NC(=O)[C@H](Cc1ccc(O)cc1)NC(=O)[C@H](CCCNC(=N)N)NC(=O)[C@H](CCCNC(=N)N)NC(=O)[C@H](CC(C)C)NC(=O)[C@H](CC(=O)O)NC(=O)[C@H](C)NC(=O)[C@H](C)NC(=O)[C@H](Cc1ccc(O)cc1)NC(=O)[C@H](CCC(N)=O)NC(=O)[C@H](C)NC(=O)[C@H](CCSC)NC(=O)[C@H](CCC(N)=O)NC(=O)[C@H](CCC(=O)O)NC(=O)[C@@H]1CCCN1C(=O)[C@@H](NC(=O)[C@H](C)NC(=O)[C@H](CC(N)=O)NC(=O)[C@H](CC(=O)O)NC(=O)CNC(=O)[C@@H]1CCCN1C(=O)[C@H](Cc1ccc(O)cc1)NC(=O)[C@@H](NC(=O)[C@@H]1CCCN1C(=O)[C@H](CCC(=O)O)NC(=O)[C@H](CC(C)C)NC(=O)[C@@H]1CCCN1C(=O)[C@H](C)N)C(C)C)[C@@H](C)O)C(=O)N[C@@H](CC(N)=O)C(=O)N[C@@H](CCSC)C(=O)N[C@@H](CC(C)C)C(=O)N[C@H](C(=O)N[C@@H](CCCNC(=N)N)C(=O)N1CCC[C@H]1C(=O)N[C@@H](CCCNC(=N)N)C(=O)N[C@@H](Cc1ccc(O)cc1)C(N)=O)[C@@H](C)O [pancreatic polypeptide] | weakly active or inactive | 
2 | C[C@H](N)C(=O)NCC(=O)N[C@H]1CSSC[C@@H](C(=O)O)NC(=O)[C@H](CO)NC(=O)[C@H]([C@@H](C)O)NC(=O)[C@H](Cc2ccccc2)NC(=O)[C@H]([C@@H](C)O)NC(=O)[C@H](CCCCN)NC(=O)[C@H](Cc2c[nH]c3ccccc23)NC(=O)[C@H](Cc2ccccc2)NC(=O)[C@H](Cc2ccccc2)NC(=O)[C@H](CC(N)=O)NC(=O)[C@H](CCCCN)NC1=O [somatostatin] | weakly active or inactive | 
3 | CSCCC(NC(=O)C(Cc1c[nH]c2ccccc12)NC(=O)CNC(=O)C(Cc1ccc(O)cc1)NC(=O)C(C)NC(=O)C(CCC(=O)O)NC(=O)C(CCC(=O)O)NC(=O)C(CCC(=O)O)NC(=O)[C@H](CCC(=O)O)NC(=O)[C@H](CCC(=O)O)NC(=O)[C@H](CC(C)C)NC(=O)[C@H](Cc1c[nH]c2ccccc12)NC(=O)[C@@H]1CCCN1C(=O)CNC(=O)[C@@H](N)CCC(=O)O)C(=O)NC(CC(=O)O)C(=O)NC(Cc1ccccc1)C(N)=O (stereo in doubt) [gastrin] | weakly active or inactive | 
4 | YaEGTFISDYSIAMDKIHQQDFVNWLLAQKPSSGAPPPS-NH2 [Compound 0601GIP3794] |  | greater than 50%
